Experimental data reported in the supplement of paper PMC10849652.
The list shows a part of the results.

Sequences of proteins named here, by UniProt entry; tags and fusion partners are left off. A change or cut given only in a name is not applied to a line headed by its entry.
UniProt O75391: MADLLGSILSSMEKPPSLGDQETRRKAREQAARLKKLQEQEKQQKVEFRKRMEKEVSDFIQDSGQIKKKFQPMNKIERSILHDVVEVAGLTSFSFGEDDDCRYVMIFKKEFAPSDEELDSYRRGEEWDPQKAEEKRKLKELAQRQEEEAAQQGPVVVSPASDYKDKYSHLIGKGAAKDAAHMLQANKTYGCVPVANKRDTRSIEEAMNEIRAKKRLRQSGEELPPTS
UniProt Q8IY18: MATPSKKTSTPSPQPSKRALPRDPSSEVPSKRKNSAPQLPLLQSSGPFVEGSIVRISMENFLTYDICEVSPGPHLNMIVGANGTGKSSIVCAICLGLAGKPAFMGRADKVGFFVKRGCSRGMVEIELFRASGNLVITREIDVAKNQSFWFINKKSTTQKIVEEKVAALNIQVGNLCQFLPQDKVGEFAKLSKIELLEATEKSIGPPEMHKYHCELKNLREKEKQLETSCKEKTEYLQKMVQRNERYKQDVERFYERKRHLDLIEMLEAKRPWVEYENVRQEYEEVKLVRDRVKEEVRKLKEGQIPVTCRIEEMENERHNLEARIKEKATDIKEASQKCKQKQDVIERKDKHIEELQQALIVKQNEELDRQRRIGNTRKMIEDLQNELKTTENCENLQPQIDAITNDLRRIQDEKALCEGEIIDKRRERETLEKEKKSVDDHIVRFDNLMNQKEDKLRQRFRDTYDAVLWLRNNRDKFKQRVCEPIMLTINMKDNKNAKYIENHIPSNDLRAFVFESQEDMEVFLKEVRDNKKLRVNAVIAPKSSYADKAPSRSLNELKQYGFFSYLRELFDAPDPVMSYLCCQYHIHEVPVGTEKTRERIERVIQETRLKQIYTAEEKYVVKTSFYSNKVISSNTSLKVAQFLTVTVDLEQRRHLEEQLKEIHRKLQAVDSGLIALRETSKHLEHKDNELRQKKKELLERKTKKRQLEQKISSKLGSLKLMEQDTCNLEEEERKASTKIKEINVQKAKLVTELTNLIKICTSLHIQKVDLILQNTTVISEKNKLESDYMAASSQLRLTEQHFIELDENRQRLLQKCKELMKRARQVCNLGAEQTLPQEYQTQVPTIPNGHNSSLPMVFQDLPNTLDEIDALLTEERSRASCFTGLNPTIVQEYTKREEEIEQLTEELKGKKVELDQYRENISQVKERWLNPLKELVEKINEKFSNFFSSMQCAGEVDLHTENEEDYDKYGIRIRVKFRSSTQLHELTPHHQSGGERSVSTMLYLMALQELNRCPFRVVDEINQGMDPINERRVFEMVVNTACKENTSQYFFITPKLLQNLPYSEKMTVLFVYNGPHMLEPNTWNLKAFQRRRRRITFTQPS
UniProt Q7Z3B0: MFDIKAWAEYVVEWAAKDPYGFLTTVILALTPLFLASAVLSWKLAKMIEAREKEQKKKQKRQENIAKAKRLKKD
UniProt Q13425: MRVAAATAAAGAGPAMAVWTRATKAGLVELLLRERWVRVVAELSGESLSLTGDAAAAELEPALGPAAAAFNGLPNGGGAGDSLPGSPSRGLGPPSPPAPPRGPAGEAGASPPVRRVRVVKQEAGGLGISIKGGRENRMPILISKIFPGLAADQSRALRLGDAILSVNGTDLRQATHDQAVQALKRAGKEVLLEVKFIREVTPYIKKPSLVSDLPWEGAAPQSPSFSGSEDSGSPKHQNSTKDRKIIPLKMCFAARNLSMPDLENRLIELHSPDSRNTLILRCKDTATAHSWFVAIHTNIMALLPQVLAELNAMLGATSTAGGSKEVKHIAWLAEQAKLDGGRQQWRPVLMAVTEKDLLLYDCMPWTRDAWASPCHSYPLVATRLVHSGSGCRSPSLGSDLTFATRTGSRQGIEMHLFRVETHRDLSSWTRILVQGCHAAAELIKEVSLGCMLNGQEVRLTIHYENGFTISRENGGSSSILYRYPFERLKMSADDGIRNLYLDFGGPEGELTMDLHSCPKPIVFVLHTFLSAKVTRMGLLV
UniProt Q9Y2E8: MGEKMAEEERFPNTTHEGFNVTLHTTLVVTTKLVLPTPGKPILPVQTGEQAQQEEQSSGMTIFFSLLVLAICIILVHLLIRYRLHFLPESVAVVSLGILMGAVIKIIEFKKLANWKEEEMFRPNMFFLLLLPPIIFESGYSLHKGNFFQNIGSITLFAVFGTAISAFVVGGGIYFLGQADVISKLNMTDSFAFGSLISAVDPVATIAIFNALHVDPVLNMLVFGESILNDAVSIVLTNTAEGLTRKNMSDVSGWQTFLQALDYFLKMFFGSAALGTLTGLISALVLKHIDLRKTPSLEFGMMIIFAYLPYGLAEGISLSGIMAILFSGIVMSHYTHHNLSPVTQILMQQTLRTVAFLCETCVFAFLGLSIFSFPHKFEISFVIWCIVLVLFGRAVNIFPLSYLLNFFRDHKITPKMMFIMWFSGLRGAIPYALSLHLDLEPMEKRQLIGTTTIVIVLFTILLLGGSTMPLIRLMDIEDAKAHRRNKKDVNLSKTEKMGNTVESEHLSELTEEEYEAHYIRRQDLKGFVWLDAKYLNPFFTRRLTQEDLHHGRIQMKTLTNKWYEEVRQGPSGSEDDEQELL
UniProt P52788: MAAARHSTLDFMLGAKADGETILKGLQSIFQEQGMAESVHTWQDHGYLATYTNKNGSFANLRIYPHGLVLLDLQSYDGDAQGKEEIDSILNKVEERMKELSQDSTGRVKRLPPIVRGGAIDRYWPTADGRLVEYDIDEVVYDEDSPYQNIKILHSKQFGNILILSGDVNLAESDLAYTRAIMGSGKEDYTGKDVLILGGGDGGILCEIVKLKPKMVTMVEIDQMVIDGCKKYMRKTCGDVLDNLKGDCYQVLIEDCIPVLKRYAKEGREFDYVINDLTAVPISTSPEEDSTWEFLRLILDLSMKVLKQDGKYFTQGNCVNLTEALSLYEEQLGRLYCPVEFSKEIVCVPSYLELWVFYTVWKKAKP
UniProt P0C7P3: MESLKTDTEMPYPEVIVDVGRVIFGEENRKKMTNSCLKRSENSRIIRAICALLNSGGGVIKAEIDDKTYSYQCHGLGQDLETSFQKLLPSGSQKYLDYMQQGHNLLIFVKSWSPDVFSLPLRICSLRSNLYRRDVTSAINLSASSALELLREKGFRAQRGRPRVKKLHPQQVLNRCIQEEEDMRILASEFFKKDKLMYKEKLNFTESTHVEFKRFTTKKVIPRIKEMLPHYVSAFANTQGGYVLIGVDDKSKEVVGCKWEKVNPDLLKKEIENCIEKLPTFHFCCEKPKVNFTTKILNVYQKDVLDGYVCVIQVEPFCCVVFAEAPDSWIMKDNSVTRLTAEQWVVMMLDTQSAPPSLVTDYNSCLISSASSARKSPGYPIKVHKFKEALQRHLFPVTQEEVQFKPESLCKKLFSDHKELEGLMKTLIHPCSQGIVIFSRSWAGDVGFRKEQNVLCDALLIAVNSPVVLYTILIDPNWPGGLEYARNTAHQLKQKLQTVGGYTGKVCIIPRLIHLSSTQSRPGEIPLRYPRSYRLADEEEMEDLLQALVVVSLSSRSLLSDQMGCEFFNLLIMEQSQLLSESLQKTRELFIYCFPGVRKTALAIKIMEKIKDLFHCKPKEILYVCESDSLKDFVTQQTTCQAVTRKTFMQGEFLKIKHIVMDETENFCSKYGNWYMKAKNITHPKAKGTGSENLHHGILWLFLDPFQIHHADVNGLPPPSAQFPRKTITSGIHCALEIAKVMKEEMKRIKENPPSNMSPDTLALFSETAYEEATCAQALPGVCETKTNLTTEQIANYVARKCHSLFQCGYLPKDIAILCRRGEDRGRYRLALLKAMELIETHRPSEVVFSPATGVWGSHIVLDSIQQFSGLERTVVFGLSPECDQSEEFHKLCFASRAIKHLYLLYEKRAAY
UniProt P09661: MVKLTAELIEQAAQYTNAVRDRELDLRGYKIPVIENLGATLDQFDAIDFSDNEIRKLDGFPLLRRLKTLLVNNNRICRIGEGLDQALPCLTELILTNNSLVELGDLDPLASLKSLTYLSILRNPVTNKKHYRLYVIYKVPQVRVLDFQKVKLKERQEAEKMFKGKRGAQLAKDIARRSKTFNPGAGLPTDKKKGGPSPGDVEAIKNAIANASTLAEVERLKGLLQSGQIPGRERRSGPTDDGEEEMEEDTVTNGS
UniProt Q9H7B4: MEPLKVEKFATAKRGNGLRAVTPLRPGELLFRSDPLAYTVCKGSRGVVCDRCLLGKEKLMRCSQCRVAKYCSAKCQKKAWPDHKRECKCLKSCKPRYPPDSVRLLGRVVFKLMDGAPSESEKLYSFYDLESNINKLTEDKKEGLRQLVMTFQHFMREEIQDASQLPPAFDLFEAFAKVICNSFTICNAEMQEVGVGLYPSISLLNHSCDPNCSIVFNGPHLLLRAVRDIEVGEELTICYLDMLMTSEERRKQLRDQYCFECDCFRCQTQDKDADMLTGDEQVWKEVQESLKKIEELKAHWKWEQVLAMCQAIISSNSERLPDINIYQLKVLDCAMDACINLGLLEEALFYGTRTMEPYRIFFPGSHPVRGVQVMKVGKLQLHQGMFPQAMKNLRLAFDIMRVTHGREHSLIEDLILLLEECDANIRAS
UniProt Q9H4I9: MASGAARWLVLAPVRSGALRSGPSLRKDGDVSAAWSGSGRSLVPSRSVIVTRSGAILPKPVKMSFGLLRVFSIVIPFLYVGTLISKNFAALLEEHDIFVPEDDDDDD
UniProt Q12824, whole entry, looked up: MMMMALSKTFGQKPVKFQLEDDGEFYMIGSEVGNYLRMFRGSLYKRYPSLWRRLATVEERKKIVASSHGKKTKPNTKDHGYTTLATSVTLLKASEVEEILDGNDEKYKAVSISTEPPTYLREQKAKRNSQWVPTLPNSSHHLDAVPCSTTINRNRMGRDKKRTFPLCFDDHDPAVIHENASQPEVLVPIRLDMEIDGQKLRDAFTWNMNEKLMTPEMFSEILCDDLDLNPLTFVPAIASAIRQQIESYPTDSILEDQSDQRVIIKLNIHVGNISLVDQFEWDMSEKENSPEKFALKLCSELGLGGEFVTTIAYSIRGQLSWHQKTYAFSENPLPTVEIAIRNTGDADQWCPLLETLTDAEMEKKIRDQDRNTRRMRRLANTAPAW
UniProt Q9NRS6: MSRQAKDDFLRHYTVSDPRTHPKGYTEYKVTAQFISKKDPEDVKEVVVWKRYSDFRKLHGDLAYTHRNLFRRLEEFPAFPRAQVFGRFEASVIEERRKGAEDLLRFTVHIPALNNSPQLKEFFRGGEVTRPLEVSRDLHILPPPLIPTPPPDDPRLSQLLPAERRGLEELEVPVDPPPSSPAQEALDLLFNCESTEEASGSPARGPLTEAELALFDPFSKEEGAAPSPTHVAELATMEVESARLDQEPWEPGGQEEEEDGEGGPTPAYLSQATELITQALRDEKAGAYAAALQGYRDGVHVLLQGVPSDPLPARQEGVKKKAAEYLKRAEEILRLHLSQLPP
UniProt P08579, whole entry, looked up: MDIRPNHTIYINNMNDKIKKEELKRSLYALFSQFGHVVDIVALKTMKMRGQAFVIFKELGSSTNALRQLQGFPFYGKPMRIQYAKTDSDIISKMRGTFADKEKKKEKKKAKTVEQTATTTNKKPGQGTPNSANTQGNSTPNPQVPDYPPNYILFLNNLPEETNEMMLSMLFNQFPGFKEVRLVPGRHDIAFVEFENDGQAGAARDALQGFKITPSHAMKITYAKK
UniProt O60264, whole entry, looked up: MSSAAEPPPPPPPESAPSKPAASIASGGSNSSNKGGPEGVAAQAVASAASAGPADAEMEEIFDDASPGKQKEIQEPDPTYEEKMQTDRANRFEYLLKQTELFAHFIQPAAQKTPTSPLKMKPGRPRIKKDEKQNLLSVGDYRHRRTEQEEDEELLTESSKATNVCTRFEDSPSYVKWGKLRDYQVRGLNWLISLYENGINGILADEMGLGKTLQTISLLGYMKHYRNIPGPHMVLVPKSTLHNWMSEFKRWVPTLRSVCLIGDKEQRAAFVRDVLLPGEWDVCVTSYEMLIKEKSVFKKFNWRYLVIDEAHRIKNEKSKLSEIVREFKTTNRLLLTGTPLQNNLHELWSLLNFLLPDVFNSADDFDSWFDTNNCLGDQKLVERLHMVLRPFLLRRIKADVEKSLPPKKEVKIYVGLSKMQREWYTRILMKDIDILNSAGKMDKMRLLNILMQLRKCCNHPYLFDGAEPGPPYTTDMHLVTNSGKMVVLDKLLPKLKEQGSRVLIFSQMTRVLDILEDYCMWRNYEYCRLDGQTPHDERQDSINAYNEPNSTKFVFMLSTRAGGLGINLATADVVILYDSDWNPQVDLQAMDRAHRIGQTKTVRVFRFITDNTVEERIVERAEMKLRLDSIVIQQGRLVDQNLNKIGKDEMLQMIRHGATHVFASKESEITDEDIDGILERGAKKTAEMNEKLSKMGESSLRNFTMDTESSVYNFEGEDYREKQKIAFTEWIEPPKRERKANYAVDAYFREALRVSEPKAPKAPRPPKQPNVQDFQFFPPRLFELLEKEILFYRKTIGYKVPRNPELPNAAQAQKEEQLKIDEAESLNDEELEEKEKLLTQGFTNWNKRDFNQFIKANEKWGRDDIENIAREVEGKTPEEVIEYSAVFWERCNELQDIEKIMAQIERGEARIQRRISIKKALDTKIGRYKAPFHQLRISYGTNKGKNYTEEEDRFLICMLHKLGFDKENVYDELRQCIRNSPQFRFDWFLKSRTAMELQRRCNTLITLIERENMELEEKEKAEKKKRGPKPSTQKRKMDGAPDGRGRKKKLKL

What was measured:
Test in all cases: log2 fold change, soluble protein after heating vs DMSO (PISA); higher = thermal stabilisation; K562 cells, 10 uM, 30 min; active = over 0.2 and 3.5 SD of the protein, either way, in both replicates (recomputed)
[1] = compound: CN1CCN(CCOc2cc(OC3CCOCC3)c3c(Nc4c(Cl)ccc5c4OCO5)ncnc3c2)CC1 [saracatinib]
Procedure, shortened: (§1)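 K562 cells at 2×10^6 cells/mL were given 10 μM compound for 30 min. Aliquots then went through 3 min of heating across 48°C-58°C, were pooled, and were extracted in PBS with 0.5% NP-40 at 4°C, and the supernatant after 21,000xg for 90 min was quantified by TMTpro 16plex LC-MS/MS with channel sums equalised. Thermal stability relative to control samples, from duplicates, is given as log2 fold change.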

[2] = compound: CN1CCN(c2nc(C3=C(c4c[nH]c5ccccc45)C(=O)NC3=O)c3ccccc3n2)CC1 [sotrastaurin]
Procedure, shortened: as §1

[3] = compound: CN1CC[C@H](c2c(O)cc(O)c3c(=O)cc(-c4ccccc4Cl)oc23)[C@H](O)C1 [alvocidib]
Procedure, shortened: as §1

[4] = compound: CN1CCc2c(c3ccccc3n2Cc2ccc(C(=O)NO)cc2)C1 [Tubastatin A]
Procedure, shortened: as §1

[5] = compound: CNC(=O)C1=CC=CC=C1NC2=NC(=NC=C2Cl)NC3=C(C=C(C=C3)N4CCOCC4)OC
Procedure, shortened: as §1

[6] = compound: CNC(=O)c1ccc(Nc2ncc(C(F)(F)F)c(NCc3nccnc3N(C)S(C)(=O)=O)n2)cc1 [defactinib]
Procedure, shortened: as §1

[7] = compound: CNCc1ccc(-c2[nH]c3cc(F)cc4c3c2CCNC4=O)cc1 [rucaparib]
Procedure, shortened: as §1

[8] = compound: CNc1nc(-c2ccc3c(N)n[nH]c3c2)cc(N2C[C@@H](C(=O)NC3CCCCC3)CC[C@H]2C)n1
Procedure, shortened: as §1

[9] = compound: COC(=O)N[C@@H](C)CNc1nccc(-c2cn(C(C)C)nc2-c2cc(Cl)cc(NS(C)(=O)=O)c2F)n1 [encorafenib]
Procedure, shortened: as §1

[10] = compound: COC(=O)[C@H](CCSC)NC(=O)C1=C(C=C(C=C1)NC[C@H](CS)N)C2=CC=CC=C2
Procedure, shortened: as §1

Measured: log2 fold change

SPAG7 (UniProt O75391)
inactive: [1] 0.014 | [2] -0.012 | [3] -0.023 | [4] -0.007 | [5] -0.001 | [6] -0.034 | [7] -0.025 | [8] -0.003 | [9] -0.04 | [10] 0.05

SMU1 (UniProt Q2TAY7)
inactive: [1] 0.068 | [2] 0.001 | [3] -0.019 | [4] -0.035 | [5] 0.022 | [6] 0.042 | [7] 0.032 | [8] -0.045 | [9] 0.003 | [10] -0.034

SNX5 (UniProt Q9Y5X3)
inactive: [1] 0 | [2] -0.006 | [4] -0.013 | [5] -0.117 | [6] -0.014 | [7] -0.054 | [8] 0.012 | [9] 0.03 | [10] 0.006

SMC5 (UniProt Q8IY18)
inactive: [1] -0.005 | [2] -0.075 | [4] -0.034 | [5] 0.056 | [6] -0.05 | [7] 0.015 | [8] -0.046 | [9] -0.045 | [10] -0.014

SNRPB isoform 3 (UniProt P14678)
inactive: [1] 0.113 | [2] 0.059 | [3] 0.104 | [4] -0.052 | [5] 0.044 | [6] 0.194 | [7] 0.047 | [8] -0.057 | [9] -0.004 | [10] 0.011

SMIM15 (UniProt Q7Z3B0)
inactive: [1] 0.126 | [2] -0.034 | [3] -0.058 | [4] 0.053 | [5] -0.062 | [6] -0.071 | [7] 0.124 | [8] 0.063 | [9] 0.027 | [10] -0.058

SNTB2 (UniProt Q13425)
inactive: [1] -0.055 | [2] 0.005 | [3] -0.198 | [4] 0.086 | [6] -0.141 | [7] 0.021 | [8] 0.035 | [9] 0.02 | [10] -0.054

SLC9A8 isoform 2 (UniProt Q9Y2E8)
inactive: [1] -0.02 | [2] 0.063 | [3] 0.093 | [4] -0.013 | [5] -0.009 | [6] -0.019 | [7] 0.044 | [8] -0.093 | [9] 0.226 | [10] 0.002

SMS (UniProt P52788)
inactive: [1] 0.028 | [2] 0.024 | [3] -0.011 | [4] -0.033 | [5] -0.042 | [6] 0.021 | [7] -0.072 | [8] -0.071 | [9] 0 | [10] 0.058

SMIM26, A0A096LP01
inactive: [1] 0.079 | [2] -0.086 | [3] 0.008 | [4] 0.005 | [5] -0.004 | [6] -0.016 | [7] -0.251 | [8] -0.154 | [9] 0.109 | [10] 0.063

SMIM1 (UniProt B2RUZ4)
inactive: [1] 0.032 | [2] -0.018 | [3] 0.087 | [4] -0.069 | [5] 0.046 | [7] -0.021 | [8] -0.1 | [9] 0.088

SLFN14 (UniProt P0C7P3)
inactive: [1] -0.12 | [2] 0.128 | [3] -0.003 | [4] 0.134 | [6] 0.52 | [8] 0.305 | [10] 0.018

SNRPA1 (UniProt P09661)
inactive: [1] 0.061 | [2] 0 | [3] 0.085 | [4] -0.07 | [5] 0.003 | [6] 0.138 | [7] -0.004 | [8] -0.085 | [9] -0.008 | [10] 0.024

SMYD2 (UniProt Q9NRG4)
inactive: [1] -0.162 | [2] -0.354 | [3] -0.013 | [4] 0.027 | [5] 0.015 | [6] -0.13 | [8] 0.208 | [10] -0.316

SNRPA (UniProt P09012)
inactive: [1] 0.047 | [2] 0.098 | [3] 0.194 | [4] -0.055 | [5] -0.01 | [6] 0.239 | [7] 0.17 | [8] -0.073 | [9] -0.033 | [10] 0.06

SMYD3 (UniProt Q9H7B4)
inactive: [1] -0.19 | [2] -0.21 | [3] 0.162 | [4] -0.118 | [5] 0.034 | [6] 0.156 | [8] 0.037 | [10] -0.24

SNTA1 (UniProt Q13424)
inactive: [1] 0.145 | [2] -0.077 | [3] 0.017 | [4] 0.026 | [6] 0.045 | [8] 0.038 | [10] 0.085

SMAD2 (UniProt Q15796)
inactive: [1] 0.001 | [2] -0.235 | [4] 0.016 | [5] 0.025 | [6] -0.142 | [7] 0.043 | [8] 0.039 | [9] -0.045 | [10] -0.052

SNX12 isoform 1 (UniProt Q9UMY4)
inactive: [1] 0.035 | [2] 0.07 | [4] 0.013 | [5] 0.059 | [6] -0.025 | [7] -0.025 | [8] -0.028 | [9] 0.15 | [10] -0.037

SMDT1 (UniProt Q9H4I9)
inactive: [1] 0.092 | [2] -0.077 | [4] 0.035 | [6] 0.014 | [7] 0.057 | [8] -0.064 | [9] 0.011 | [10] 0.003

SNX1 (UniProt Q13596)
inactive: [1] 0.006 | [2] -0.006 | [4] -0.021 | [5] -0.112 | [6] -0.036 | [7] -0.023 | [8] 0.028 | [9] 0.024 | [10] -0.026

SMPD4 isoform 4 (UniProt Q9NXE4)
inactive: [1] 0.154 | [2] -0.082 | [4] 0.007 | [5] -0.041 | [6] -0.056 | [7] 0.043 | [8] -0.071 | [9] -0.081 | [10] 0

Reprinted at random: two records from the list
SNX1 (UniProt Q13596)
inactive: [1] 0.006 | [2] -0.006 | [4] -0.021 | [5] -0.112 | [6] -0.036 | [7] -0.023 | [8] 0.028 | [9] 0.024 | [10] -0.026

SNX12 isoform 1 (UniProt Q9UMY4)
inactive: [1] 0.035 | [2] 0.07 | [4] 0.013 | [5] 0.059 | [6] -0.025 | [7] -0.025 | [8] -0.028 | [9] 0.15 | [10] -0.037

Additional results

SMARCB1 (UniProt Q12824)
inactive: [1] -0.09 | [2] -0.192 | [4] 0.016 | [6] -0.158 | [8] -0.009 | [9] -0.247 | [10] 0.144
active: [7] 0.809

SMIM20 isoform 2 (UniProt Q8N5G0)
inactive: [1] 0 | [2] 0.056 | [4] -0.013 | [5] 0.018 | [6] -0.138 | [7] -0.088 | [8] -0.094 | [9] -0.055 | [10] -0.143

SNRNP27 (UniProt Q8WVK2)
inactive: [1] -0.071 | [2] 0.048 | [4] -0.023 | [5] -0.036 | [6] 0.015 | [7] 0.049 | [8] -0.09 | [9] -0.061 | [10] 0.097

SNX15 (UniProt Q9NRS6)
inactive: [1] -0.039 | [2] -0.048 | [4] 0.045 | [6] -0.177 | [7] -0.063 | [8] -0.043 | [9] 0.098 | [10] 0.025

SNRPB2 (UniProt P08579)
inactive: [1] 0.079 | [2] 0.041 | [4] -0.11 | [5] 0.02 | [6] 0.193 | [7] 0.058 | [8] -0.041 | [9] -0.037 | [10] 0.054

SMARCA5 (UniProt O60264)
inactive: [1] -0.084 | [2] -0.235 | [4] 0.082 | [5] 0.038 | [6] -0.145 | [7] 0.035 | [8] 0.065 | [9] 0.116 | [10] 0.01

SPAG9 (UniProt O60271)
inactive: [1] 0.014 | [2] -0.037 | [4] 0.003 | [5] 0.02 | [6] -0.044 | [7] 0.049 | [8] 0.034 | [9] 0.023 | [10] -0.011
